Earlier results as cited in paper PMC11365112, “Time-resolved fluorescence of tryptophan characterizes membrane perturbation by cyclic lipopeptides” (Biophysical Journal, 2024).

From the text: As a consequence, dipolar relaxation is possible to a similar extent in both but slower in heavy water. For virtually fully buffer-exposed Trp in NATA, switching from buffer prepared with normal water to buffer prepared with heavy water increases the relaxation time by a factor of RD/H = trel(D2O)/trel(H2O) = 1.53 ([78]). A similarly high RD/H is expected whenever relaxation proceeds via bulk-like water reorientation only. For the mostly membrane-inserted W-viscosins in ...

| Compound | RD/H (probe in carbonyl region of POPC membranes) | RD/H = trel(D2O)/trel(H2O) (fully buffer-exposed Trp in buffer) |
| --- | --- | --- |
| CCCCCCCCCCCC(=O)c1ccc2cc(N(C)C)ccc2c1 [Laurdan] | 1.18 | – |
| CC(=O)N[C@@H](Cc1c[nH]c2ccccc12)C(N)=O [NATA, N-Acetyl-L-tryptophan amide] | – | 1.53 |
